In experiment [1] the target is T1, BGLF2-GFP (Epstein-Barr virus) (UniProt P0CK53).
T1 sequence: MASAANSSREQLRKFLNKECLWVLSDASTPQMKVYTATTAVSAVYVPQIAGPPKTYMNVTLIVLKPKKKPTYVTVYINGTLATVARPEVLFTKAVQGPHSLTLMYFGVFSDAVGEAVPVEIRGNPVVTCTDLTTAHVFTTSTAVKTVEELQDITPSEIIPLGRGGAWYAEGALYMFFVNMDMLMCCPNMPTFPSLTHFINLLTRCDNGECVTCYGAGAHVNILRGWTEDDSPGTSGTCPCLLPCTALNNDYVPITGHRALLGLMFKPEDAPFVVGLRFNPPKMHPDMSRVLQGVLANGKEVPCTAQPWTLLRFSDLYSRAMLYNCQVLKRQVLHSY
The experiment can be described thus: co-IP; HEK293T cells cotransfected, 48 h; lysate in PBS with 1% Triton X-100; precipitated with GFP-Trap (BGLF2-GFP as bait); blot with anti-Flag.

The target of experiment [2] is T2, GST-BGLF2 (Epstein-Barr virus) (UniProt P0CK53).
T2 sequence: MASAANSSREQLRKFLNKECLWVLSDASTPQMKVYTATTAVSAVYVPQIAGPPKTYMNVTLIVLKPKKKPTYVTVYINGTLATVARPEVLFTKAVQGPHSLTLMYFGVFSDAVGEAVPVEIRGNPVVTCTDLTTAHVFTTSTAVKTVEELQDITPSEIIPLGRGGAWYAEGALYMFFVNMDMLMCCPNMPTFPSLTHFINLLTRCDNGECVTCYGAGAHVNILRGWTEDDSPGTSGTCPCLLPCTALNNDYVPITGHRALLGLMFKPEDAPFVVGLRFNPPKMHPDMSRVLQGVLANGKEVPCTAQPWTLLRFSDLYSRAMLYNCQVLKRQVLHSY
The experiment can be described thus: pull-down; His-BBLF1 mixed with GST or GST-BGLF2 in PBS with 1% NP40; glutathione (GST)-Sepharose beads, 4°C 1.5 h; washed with PBS with 1% NP40; blot with anti-His and anti-GST; both purified.

In experiment [3] the target is BBLF1-GFP (Epstein-Barr virus). The experiment can be described thus: co-IP; 293T cells cotransfected with BBLF1-GFP and V5-BGLF2, its deletion mutants or 3KA, 48 h; precipitated with GFP-Trap (BBLF1-GFP as bait); blot with anti-GFP and anti-V5.
Experiment [4] concerns the target BBLF1-Flag (Epstein-Barr virus). Kind of experiment: co-IP; HEK293T cells cotransfected, 48 h; lysate in PBS with 1% Triton X-100; immunoprecipitated with anti-Flag antibody (BBLF1-Flag or its mutants as bait), 4°C 1 h, protein-A/G agarose; blot with anti-GFP.
For experiment [5], the target named is His-BBLF1 (Epstein-Barr virus). Kind of experiment: pull-down; His-BBLF1 mixed with GST or GST-BGLF2 in PBS with 1% NP40; Ni-NTA beads, 4°C 1.5 h; washed with PBS with 1% NP40 and 0.2 M imidazole; blot with anti-His and anti-GST; both purified.

Results are given in words; binding and its absence hold for the method and conditions named. Binding can be weak; no strength is given. Sequences can lack the tags named with a protein. For some assays here: In cells and extracts the contact can be indirect.

Take BBLF1-Flag (Epstein-Barr virus): the binding result in experiment [1] was “binds”.

His-BBLF1 (Epstein-Barr virus): in experiment [2], the binding result was “binds”.

B1: V5-BGLF2 with the C-terminal region deleted from aa 300 to 336 (domain or fragment, UniProt P0CK53 1-300)
chain: MASAANSSREQLRKFLNKECLWVLSDASTPQMKVYTATTAVSAVYVPQIAGPPKTYMNVTLIVLKPKKKPTYVTVYINGTLATVARPEVLFTKAVQGPHSLTLMYFGVFSDAVGEAVPVEIRGNPVVTCTDLTTAHVFTTSTAVKTVEELQDITPSEIIPLGRGGAWYAEGALYMFFVNMDMLMCCPNMPTFPSLTHFINLLTRCDNGECVTCYGAGAHVNILRGWTEDDSPGTSGTCPCLLPCTALNNDYVPITGHRALLGLMFKPEDAPFVVGLRFNPPKMHPDMSRVLQGVLANGKE
In the case of B1, in experiment [3], the binding result is “binds”.

B2: BGLF2-GFP (protein, UniProt P0CK53 1-336)
chain: MASAANSSREQLRKFLNKECLWVLSDASTPQMKVYTATTAVSAVYVPQIAGPPKTYMNVTLIVLKPKKKPTYVTVYINGTLATVARPEVLFTKAVQGPHSLTLMYFGVFSDAVGEAVPVEIRGNPVVTCTDLTTAHVFTTSTAVKTVEELQDITPSEIIPLGRGGAWYAEGALYMFFVNMDMLMCCPNMPTFPSLTHFINLLTRCDNGECVTCYGAGAHVNILRGWTEDDSPGTSGTCPCLLPCTALNNDYVPITGHRALLGLMFKPEDAPFVVGLRFNPPKMHPDMSRVLQGVLANGKEVPCTAQPWTLLRFSDLYSRAMLYNCQVLKRQVLHSY
As for B2, the binding entry in experiment [4] is “binds”.

B3: GST-BGLF2 (protein, UniProt P0CK53 1-336)
chain: MASAANSSREQLRKFLNKECLWVLSDASTPQMKVYTATTAVSAVYVPQIAGPPKTYMNVTLIVLKPKKKPTYVTVYINGTLATVARPEVLFTKAVQGPHSLTLMYFGVFSDAVGEAVPVEIRGNPVVTCTDLTTAHVFTTSTAVKTVEELQDITPSEIIPLGRGGAWYAEGALYMFFVNMDMLMCCPNMPTFPSLTHFINLLTRCDNGECVTCYGAGAHVNILRGWTEDDSPGTSGTCPCLLPCTALNNDYVPITGHRALLGLMFKPEDAPFVVGLRFNPPKMHPDMSRVLQGVLANGKEVPCTAQPWTLLRFSDLYSRAMLYNCQVLKRQVLHSY
As for B3, the binding entry in experiment [5] is given as “binds”.

B4: V5-BGLF2 (protein, UniProt P0CK53 1-336)
chain: MASAANSSREQLRKFLNKECLWVLSDASTPQMKVYTATTAVSAVYVPQIAGPPKTYMNVTLIVLKPKKKPTYVTVYINGTLATVARPEVLFTKAVQGPHSLTLMYFGVFSDAVGEAVPVEIRGNPVVTCTDLTTAHVFTTSTAVKTVEELQDITPSEIIPLGRGGAWYAEGALYMFFVNMDMLMCCPNMPTFPSLTHFINLLTRCDNGECVTCYGAGAHVNILRGWTEDDSPGTSGTCPCLLPCTALNNDYVPITGHRALLGLMFKPEDAPFVVGLRFNPPKMHPDMSRVLQGVLANGKEVPCTAQPWTLLRFSDLYSRAMLYNCQVLKRQVLHSY
With B4, the binding result in experiment [3] is recorded as “binds”.

B5: V5-BGLF2 with the C-terminal region deleted from aa 328 to 336 (domain or fragment, UniProt P0CK53 1-328)
chain: MASAANSSREQLRKFLNKECLWVLSDASTPQMKVYTATTAVSAVYVPQIAGPPKTYMNVTLIVLKPKKKPTYVTVYINGTLATVARPEVLFTKAVQGPHSLTLMYFGVFSDAVGEAVPVEIRGNPVVTCTDLTTAHVFTTSTAVKTVEELQDITPSEIIPLGRGGAWYAEGALYMFFVNMDMLMCCPNMPTFPSLTHFINLLTRCDNGECVTCYGAGAHVNILRGWTEDDSPGTSGTCPCLLPCTALNNDYVPITGHRALLGLMFKPEDAPFVVGLRFNPPKMHPDMSRVLQGVLANGKEVPCTAQPWTLLRFSDLYSRAMLYNCQVL
On to B5, for which the binding result in experiment [3] is recorded as “binds”.

B6: V5-BGLF2 with the C-terminal region deleted from aa 155 to 336 (domain or fragment, UniProt P0CK53 1-155)
chain: MASAANSSREQLRKFLNKECLWVLSDASTPQMKVYTATTAVSAVYVPQIAGPPKTYMNVTLIVLKPKKKPTYVTVYINGTLATVARPEVLFTKAVQGPHSLTLMYFGVFSDAVGEAVPVEIRGNPVVTCTDLTTAHVFTTSTAVKTVEELQDITP
For B6, the binding entry in experiment [3] was “binds”.

Values taken from paper PMC6993569.
